# This is one part of the list. These are further read-outs of the screen, such as a control signal, another cell line or another target. No call is given for them. Compounds called inactive in the main read-out are mostly missing here. Potencies come from curve fits of mixed quality, noted in brackets.
# Assay: qHTS Assay for Modulators of Lamin A Splicing
# Conditions: HeLa LMNA splicing GFP/RFP minigene ratio, 48 h
# Outline: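 Read-out is the ratio of GFP to DsRed2 object intensity, acquired by 488 nm laser-scanning cytometry on HeLa lamin A-EGFP minigene reporter cells. Compound incubation 48 hrs at 37 °C in Opti-MEM with 2% FBS; DMSO 0.5% final.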
# [1] = measured here: GFP splicing reporter channel
# [2] = measured here: RFP viability control channel
Compound,AC50 [1],AC50 [2]
COc1ccc(CNC(=O)CCn2c(=O)oc3ccccc32)c(OC)c1,"3.55 µM [rising, single point]","11.2 µM [rising, partial curve, poor fit]"
C/C(=N/NC(=O)C1CC1(c1ccccc1)c1ccccc1)c1ccco1 (stereo not given),,"31.6 µM [rising, single point]"
Cc1ccc(-c2nn(-c3ccccc3)cc2/C=N/NC(=O)CSc2nnc(C)n2-c2ccccc2)cc1,"35.5 µM [rising, single point]","35.5 µM [rising, single point]"
S=C(NCc1ccco1)Nc1cccc(Cl)c1,,"10 µM [rising, partial curve]"
COc1ccc(N2CC(C(=O)OCC(=O)c3ccc(C)cc3)CC2=O)cc1 (stereo not given),"0.0126 µM [rising, full curve]","0.00562 µM [rising, full curve, poor fit]"
COc1ccccc1-n1c(=O)oc2ccc(Cl)cc2c1=O,"2.82 µM [rising, single point]","6.31 µM [rising, single point]"
N#CCC(=O)Nc1cc(C(F)(F)F)ccc1N1CCOCC1,,"0.0891 µM [falling, partial curve]"
COc1ccc(CCNC(=O)Cn2c(=O)c3cccn3c3ccccc32)cc1OC,,"11.2 µM [rising, single point]"
CC(C)(C)c1ccc(-c2nc(NCc3cccnc3)c3ccccc3n2)cc1,"17.8 µM [falling, single point]","11.2 µM [falling, single point]"
CCCCN(C)S(=O)(=O)c1ccc(C(=O)Nc2nnc(-c3ccco3)o2)cc1,"1.58 µM [falling, partial curve, poor fit]",
CC(=O)Nc1c(C)nn(-c2ccccc2)c1N1CCC(C(=O)Nc2cccc(C(F)(F)F)c2)CC1,"0.891 µM [rising, partial curve]","0.891 µM [rising, partial curve, poor fit]"
CCc1nnc2c3ccccc3nc(N3CCN(c4cc(C)ccc4C)CC3)n12,"35.5 µM [falling, single point]","17.8 µM [falling, partial curve, poor fit]"
O=C(Nc1nnc(SCc2ccccc2Cl)s1)c1cccc([N+](=O)[O-])c1,"20 µM [rising, single point]","35.5 µM [rising, single point]"
COc1cccc(Nc2ncc3nc(CCc4ccccc4)c(=O)n(Cc4cccs4)c3n2)c1,"15.8 µM [falling, partial curve]","10 µM [falling, partial curve]"
COc1ccc(N2CCN(S(=O)(=O)CCNC(=O)c3c(F)cccc3Cl)CC2)cc1,"5.62 µM [rising, partial curve, poor fit]","0.282 µM [rising, partial curve, poor fit]"
CC(=O)Nc1cc(C(=O)Nc2ccc3c(c2)N(C)C(=O)c2ccccc2S3)ccc1C,,"7.08 µM [rising, partial curve]"

# Copied from the listing for reference:
Compound,AC50 [1],AC50 [2]
COc1ccc(CNC(=O)CCn2c(=O)oc3ccccc32)c(OC)c1,"3.55 µM [rising, single point]","11.2 µM [rising, partial curve, poor fit]"
C/C(=N/NC(=O)C1CC1(c1ccccc1)c1ccccc1)c1ccco1 (stereo not given),,"31.6 µM [rising, single point]"
Cc1ccc(-c2nn(-c3ccccc3)cc2/C=N/NC(=O)CSc2nnc(C)n2-c2ccccc2)cc1,"35.5 µM [rising, single point]","35.5 µM [rising, single point]"
S=C(NCc1ccco1)Nc1cccc(Cl)c1,,"10 µM [rising, partial curve]"
COc1ccc(N2CC(C(=O)OCC(=O)c3ccc(C)cc3)CC2=O)cc1 (stereo not given),"0.0126 µM [rising, full curve]","0.00562 µM [rising, full curve, poor fit]"
COc1ccccc1-n1c(=O)oc2ccc(Cl)cc2c1=O,"2.82 µM [rising, single point]","6.31 µM [rising, single point]"
N#CCC(=O)Nc1cc(C(F)(F)F)ccc1N1CCOCC1,,"0.0891 µM [falling, partial curve]"
COc1ccc(CCNC(=O)Cn2c(=O)c3cccn3c3ccccc32)cc1OC,,"11.2 µM [rising, single point]"
CC(C)(C)c1ccc(-c2nc(NCc3cccnc3)c3ccccc3n2)cc1,"17.8 µM [falling, single point]","11.2 µM [falling, single point]"

# Later entries:

Compound,AC50 [1],AC50 [2]
CCOc1ccc(-c2onc(C(F)(F)F)c2-c2cscn2)c(O)c1,,"11.2 µM [rising, single point]"
COc1ccc(/C=N/NS(=O)(=O)c2ccc(C)cc2)cc1OC(=O)c1ccccc1,"12.6 µM [rising, partial curve]","17.8 µM [rising, partial curve]"
CCOC(=O)C1(C)NC(c2cccs2)C2C(=O)N(c3ccc(OC)cc3)C(=O)C21 (stereo not given),"0.02 µM [falling, full curve, poor fit]","0.02 µM [falling, full curve, poor fit]"
COc1ccc(-c2ccc(=O)[nH]n2)cc1,"0.891 µM [falling, full curve, poor fit]","0.447 µM [falling, full curve, poor fit]"
CCCOC(=O)c1ccc(NC(=O)CCC(=O)OCC)cc1,,"0.794 µM [falling, full curve, poor fit]"
Cc1ccc(Nc2nc(CSc3nnnn3-c3ccccc3)cc(=O)[nH]2)cc1,"12.6 µM [rising, partial curve]","14.1 µM [rising, partial curve]"
O=C(Nc1nnc(S(=O)(=O)N2CCc3ccccc32)s1)c1ccccc1Cl,"7.08 µM [rising, partial curve, poor fit]","11.2 µM [rising, partial curve, poor fit]"
CC1(C)Cc2ccccc2-c2nnc(SCC(=O)N3CCN(c4ccccc4)CC3)n21,,"8.91 µM [rising, partial curve]"
CCOc1ncccc1C(=O)NCc1ccccc1F,,"0.141 µM [rising, full curve, poor fit]"
CN1CCC[C@@H](CC2c3ccccc3Sc3ccccc32)C1,"7.08 µM [falling, partial curve, poor fit]","12.6 µM [falling, single point]"
C/C(=N\Nc1nc2c(s1)CCCC2)c1ccc(Cl)cc1,"35.5 µM [falling, single point]","25.1 µM [falling, single point]"
O=C(O)CCSCCC(=O)O,"35.5 µM [falling, single point]","1.78 µM [falling, partial curve]"
CCOC(=O)C1CCCN(C(=O)c2ccc(NC(=O)c3nsc4ccccc34)cc2)C1 (stereo not given),"0.398 µM [rising, full curve, poor fit]","0.141 µM [rising, full curve, poor fit]"
Cc1ccccc1Nc1c(-c2ccccn2)nc2ccccn12,,"10 µM [rising, partial curve, poor fit]"
O.O.O.O=S(=O)([O-])OC[C@H]1O[C@@H](O[C@]2(COS(=O)(=O)[O-])O[C@H](OS(=O)(=O)[O-])[C@@H](OS(=O)(=O)[O-])[C@@H]2OS(=O)(=O)[O-])[C@H](OS(=O)(=O)[O-])[C@@H](OS(=O)(=O)[O-])[C@@H]1OS(=O)(=O)[O-].[Al],,"10 µM [rising, single point]"

# Reference: PubChem BioAssay AID1487 (National Center for Advancing Translational Sciences (NCATS), 2009)
